Source: the supplement of paper PMC5949888
Most values lie at the floor of the assay. Slopes are relative: functional sequences can read slightly below zero.

What follows are substances tested on Saccharomyces cerevisiae PS128 hsf1 delta, HSF1(1-493) fusion (assay: growth estimate (transactivation domain function in HSF1 fusion, heat-shock survival) (a.u. (slope of normalised read count over time)); higher = stronger growth at 37°C, i.e. more transactivation activity). Details: library: random library.

Substance	growth estimate
QEHGRVELACQRSTMLDV	< -0.25
QEKRTE	< -0.25
QELKFGRKSFTGESSDVTSR	< -0.25
QELRECSGRQFIHLNRVLRK	< -0.25
QEQGRRLGREIGLLDRADSA	< -0.25
QERAVIVLALKGIYETLSPT	< -0.25
QERPYIMLST	< -0.25
QES	< -0.25
QESNAGACACKIHMYTSRFR	< -0.25
QESTGKVRLGCWGSEEKRTT	< -0.25
QEVILGSPGVSSCKV	< -0.25
QFAERPVEIG	< -0.25
QFGCPIFVQTG	< -0.25
QFGSTTFAT	< -0.25
QFHTCRQVRGRAGALEAGQC	< -0.25
QFLNAKSSDGINLVNPLVRV	< -0.25
QFPPGSYVQIRGAMPPLQKV	< -0.25
QFRV	< -0.25
QFTGAYPRGSKVTVTSVA	< -0.25
QGASALCTSIGDKFASSV	< -0.25
QGDDYCTNRVVRI	< -0.25
QGDFMRLLMREAVKTGLASL	< -0.25
QGDPLA	< -0.25
QGDSRPPSLPVRVVLV	< -0.25
QGEFSGILRPEGGDTRAETS	< -0.25

Substance	growth estimate
QGEQ	< -0.25
QGEVVVRAVYSVPSCLSCYK	< -0.25
QGEY	< -0.25
QGFRNHWVRRGNLYVK	< -0.25
QGGDGRFKFIFSGLLKVVVE	< -0.25
QGGNLDAV	< -0.25
QGGPNSLTQGV	< -0.25
QGGPSAVQVLWLDLVILSEE	< -0.25
QGGTLANGLFGITFTSNSGR	< -0.25
QGIGMKTAHPL	< -0.25
QGKCATRHTV	< -0.25
QGL	< -0.25
QGLKPDVNDLGKWSGEVRQV	< -0.25
QGMPLLAGHNFSSNSSVGSP	-0.246
QGPDLRCV	< -0.25
QGPF	< -0.25
QGPTSGLG	< -0.25
QGRACSDRR	< -0.25
QGRRAYRRFGRGGRRGETLA	< -0.25
QGRTCRTRQERVYHLAPGGG	< -0.25
QGRVVGGTRVRRGVTGAGRW	< -0.25
QGSLYHCPGNEGLPWVLGFM	< -0.25
QGTTYLGECVP	< -0.25
QGVHDGYSPQHARLATGIVS	< -0.25
QGVVLFILGTHGQRLH	< -0.25

Substance	growth estimate
QGVYQVLNESARIDIRLQCL	< -0.25
QGWQCMDRL	< -0.25
QGWSRQCSVSLKRRGHSIVS	< -0.25
QGYNTYFITQKVCATE	< -0.25
QHDRVRCPYKGDMQSPPRTR	< -0.25
QHGTRVRRGGLHV	< -0.25
QHIRQFTPIQYVTCGFLQLK	< -0.25
QHKELDRRTIQYRGHNVHSV	< -0.25
QIAGLTAW	< -0.25
QICPDCFDMPALTCGELLFL	-0.137
QIDLVLDALELNY	< -0.25
QIGESPKTFLAFE	-0.0478
QIGLVGFSTILLEEGVWWGC	< -0.25
QILKRVWQFGSRAVDVQLFT	< -0.25
QIMALVEAGVH	< -0.25
QIPGMDLIPRRRTPYPVY	< -0.25
QIPSSLPLLLSHVLTQRSEC	< -0.25
QISNFQRALRVDSFGAWVAS	< -0.25
QIWCPAAIALGRNSRGQGIP	< -0.25
QKAGGSSSAIRRNAQGPPTS	< -0.25
QKDGYIWESLNFPARLLVDP	< -0.25
QKDKSSSCLCFTIRPGFGEA	< -0.25
QKIVTAERYRDGIEDVSELL	< -0.25
QKPDQQGR	< -0.25
QKQAQDPRPG	< -0.25

Six records drawn at random from the list so far:
Substance	growth estimate
QKQAQDPRPG	< -0.25
QHKELDRRTIQYRGHNVHSV	< -0.25
QGWQCMDRL	< -0.25
QKDGYIWESLNFPARLLVDP	< -0.25
QIWCPAAIALGRNSRGQGIP	< -0.25
QIGLVGFSTILLEEGVWWGC	< -0.25

More entries.

Substance	growth estimate
QKRVMPPSGILVDPI	< -0.25
QKSQANLKCRAYLLAAPISV	< -0.25
QKSTAASVSRHITSKIRVES	< -0.25
QKT	< -0.25
QKYLKINSDRKERETVHVFR	< -0.25
QLA	< -0.25
QLAIGLARSGALRGTACAHD	< -0.25
QLARSEQPNHTVASLQSSAN	< -0.25
QLATSRFRSV	< -0.25
QLESTILL	< -0.25
QLF	< -0.25
QLGLIATIKGCSLSIGKVWG	< -0.25
QLGQLAYPSQSGDEMLLTTP	< -0.25
QLHLSPSTMGT	< -0.25
QLI	< -0.25
QLIFDKHRLPDLEEGVFSAR	< -0.25
QLKQQCMLMAHRVVWRRALR	< -0.25
QLKSNHNWLAE	< -0.25
QLLFTVPVYSLYISRTRIIS	< -0.25
QLLSALRH	< -0.25
QLLSGDGSVDSGRLVRDES	< -0.25
QLMGG	< -0.25
QLPSYKTPCDTVASYPASAG	< -0.25
QLRGLVKQDTSEGKFAEPDA	< -0.25
QLRLLCQASHKRPPARSVIL	< -0.25

Substance	growth estimate
QLRVSTGESMMILHSAAELQ	< -0.25
QLSSPAPGNHSCARNSSGLQ	< -0.25
QLTSIACC	< -0.25
QLVGGKNSSMSGLGRIKY	< -0.25
QMALTWRFSY	< -0.25
QMDSLKKGGR	< -0.25
QMLCFKT	< -0.25
QMNWESEPIIL	< -0.25
QMSTQRQMVGPRCFLYAGSD	< -0.25
QMSTRPTHGAGYNIHDYGCP	< -0.25
QMVEG	< -0.25
QNFEFSRVLTISDVSGVRVL	< -0.25
QNGKTLFDH	< -0.25
QNINILFVGPWQHRPRGLRV	< -0.25
QNLPVIVGANCGVHRKMYAH	-0.245
QNQL	< -0.25
QNSGTCPESLTGAQARAVLA	< -0.25
QNVTTLAGNGCEKKFFIFGP	< -0.25
QPAWTFVSLNGEGYAAHAQG	< -0.25
QPCEGGEHWSIRGA	< -0.25
QPCHAACNGIGTAKRVPDNG	< -0.25
QPCVKTTDKKPKP	< -0.25
QPDRTSRPAQGAAHDSRIRS	< -0.25
QPEDDDSAWPKRIVAMTLLS	< -0.25
QPFGWTLDPEETSCCLHVRG	< -0.25

Substance	growth estimate
QPIESKRVASVRCVWESIRR	< -0.25
QPKGEDEV	-0.245
QPLG	< -0.25
QPNSRL	< -0.25
QPPASRSMKLGYAGRQTIPK	< -0.25
QPRLGHNASGNVKSLQAQPA	< -0.25
QPSI	< -0.25
QPSNPNYRERCQGPV	-0.21
QPSRTKWSLGVSWLEMTECP	-0.231
QPTQWALLDLSQ	< -0.25
QPTTCQKRS	< -0.25
QPVFTRQPSSRRRGHLNALR	-0.222
QQACIGCIGVSDFTRH	< -0.25
QQDSAHRAICSKRISVEFCG	< -0.25
QQHRVVERSEQLYEWEILRF	-0.173
QQMIHQTEGVTGSGLRARNG	< -0.25
QQNSRPRGSHARHTRSILVT	< -0.25
QQRGTTSKP	-0.231
QQSQMT	< -0.25
QQYSRYSNRWAR	< -0.25
QRAIVVSYQRMTGPGALDTD	< -0.25
QRCSNKRRGASRGKWL	< -0.25
QRCSSPTSYLNGCPT	< -0.25
QRDITTSRGPTNSSRKMRAS	< -0.25
QRDLRAKVKLTLSALI	< -0.25

Substance	growth estimate
QRDLTLWTPY	< -0.25
QRGEETVRPNWPHAELTSVP	< -0.25
QRGSGGDLSFSA	< -0.25
QRGWLHCRGLSFIASFTQLS	< -0.25
QRHASSRSQTWNIAVPNFAP	-0.246
QRILYEY	< -0.25
QRKIGQQRCTWMDRLTGASI	< -0.25
QRLMTEHEEDYDRLWVR	< -0.25
QRLRDLRALVVTDCR	< -0.25
QRPMLDHV	< -0.25
QRPRVHTRDTLLINSQDWSL	< -0.25
QRRLCDHMVALRAGIRSNSY	< -0.25
QRSFSILLCSAPSHRSNQFS	< -0.25
QRSKFNEIPEKNIGMKLRGD	< -0.25
QRSMSDPFLVEAC	< -0.25
QRSNRLGHLRLPNTPKGRTP	< -0.25
QRSR	< -0.25
QRTGNVSLTP	< -0.25
QRTTSALRGPLGQHRSHSRF	< -0.25
QRVHTLLGSLFLTGLQLVYR	< -0.25
QSAQLTPRLPFFLRREQRAY	< -0.25
QSEL	< -0.25
QSG	< -0.25
QSGDYGYWLTDVGRNHHLKT	< -0.25
QSGPVGILS	< -0.25

Substance	growth estimate
QSGQRFMR	< -0.25
QSHSDTPQSAWGGTLL	< -0.25
QSIEFTSSAVLASSV	< -0.25
QSIKGHP	< -0.25
QSLRDSVVKIRVGAG	< -0.25
QSLVQ	< -0.25
QSPRLVAS	< -0.25
QSQSS	< -0.25
QSRACSNSQYGWAVRCQGQQ	< -0.25
QSRANGTNKGQLGLQIRTRQ	< -0.25
QSRFSYRN	< -0.25
QSRHSELEADILTQTVDATD	-0.223
QSRIRLVFGLDSAV	< -0.25
QSRLPIHHAQLDYSRVAFPL	< -0.25
QSRVLSSGEAPCVGDNLRGI	< -0.25
QSRYPC	< -0.25
QSTNDS	< -0.25
QSVRWFILLSSVGSSCPSLR	< -0.25
QSWCRHRLTSRLRPSSLRAH	< -0.25
QSWVY	< -0.25
QSYTD	< -0.25
QTAIIHAGMTACFGALEG	< -0.25
